From PubChem BioAssay AID328 (DTP/NCI, 2004)
The list shows only some results of the screen, not a fair sample: it gathers tests that were run many times, whatever their T/C, doses with no T/C, and many T/C values between a quarter and a half above the control. Further doses and runs are listed elsewhere. T/C gives the treated animals as a percentage of the vehicle group. Some entries give survivors of the animals treated and no T/C: the source files T/C as zero there, which appears to mark a toxic dose or a test without result, not a measured value. Some doses without a T/C left all or most animals alive at the check, yet need not have been tolerated: survival well below the control is almost never listed, so the zero probably covers shortened survival too. Survivors were counted at the toxicity check, usually on the fifth day, unless a day is given; later deaths do not show. Schedule codes are those of the source, read here as Q, the interval in days (D) or hours (H), X, the number of doses. Where survival is the endpoint, this PubChem deposit counts one and a half times the control or more as active, and values a quarter to a half above the control carry no call in these data; other NCI protocols may use other cut-offs. Some T/C values are followed by the survivors on the day toxicity was checked, most often the fifth; without a count, all were alive then.

Test system: BDF1 mice, P388 leukemia ip, median survival T/C
Experiment: NCI In Vivo Anticancer Drug Screen. Data for tumor model P388 Leukemia (intraperitoneal) in B6D2F1 (BDF1) mice
Conditions: T/C endpoint: median survival time, higher T/C = longer survival
How it was run: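 Antitumour effect was judged in vivo: survival in drug-treated mice, normalised to that of vehicle-dosed controls, gives the reported T/C.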

Question: Which survivor count (dose: 2.0 mg/kg/injection, schedule: Q01DX009 (ip), vehicle: carboxymethylcellulose (CMC)) does the source give for `C=C1C(=O)O[C@@H]2/C=C(/C)[C@@]3(O)C=C[C@](C)(C[C@@H](OC(=O)/C(=C\C)COC(C)=O)[C@@H]12)O3` here?
Answer: The survivor count was 6 of 6.

Question: What about the survivor count (dose: 4.0 mg/kg/injection, schedule: Q01DX009 (ip), vehicle: carboxymethylcellulose (CMC)) of the same molecule?
Answer: Its survivor count is 3 of 6.

Question: And the T/C (dose: 10.0 mg/kg/injection, schedule: Q01DX010 (ip), vehicle: saline)?
Answer: The T/C was 140 % of control.

Question: And the survivor count (dose: 12.0 mg/kg/injection, schedule: Q01DX010 (ip), vehicle: carboxymethylcellulose (CMC))?
Answer: The survivor count was 3 of 6.

Question: What about the T/C (dose: 18.0 mg/kg/injection, schedule: Q01DX010 (ip), vehicle: carboxymethylcellulose (CMC)) of the same molecule?
Answer: Its T/C is 126 % of control [4 of 6 alive].

Question: What about the T/C (dose: 20.0 mg/kg/injection, schedule: Q01DX010 (ip), vehicle: saline) of the same molecule?
Answer: The T/C was 145 % of control.

Question: And the T/C (dose: 27.0 mg/kg/injection, schedule: Q01DX010 (ip), vehicle: saline)?
Answer: Its T/C is 127 % of control.

Question: And the survivor count (dose: 60.0 mg/kg/injection, schedule: Q01DX010 (ip), vehicle: saline)?
Answer: The survivor count was 5 of 6.

Question: `COC(=O)C1=C(C)NC2(C)SC1C(C)C2C(=O)OC` (stereo not given) was tested. Which T/C (dose: 50.0 mg/kg/injection, schedule: Q01DX009 (ip), vehicle: saline with Tween-80) did it give?
Answer: Its T/C is 125 % of control.

Question: For `c1ccc2c(c1)CCc1cc3c(nc1-2)-c1ccccc1CC3`, which T/C (dose: 200.0 mg/kg/injection, schedule: Q04DX003 (ip), vehicle: Klucel (hydroxypropylcellulose) (HPC)) is on record?
Answer: The T/C was 125 % of control.
